PubChem BioAssay AID270 (DTP/NCI, 2004)
The list does not hold the whole screen: its compounds were picked by chemical class. Not every dose and run of a compound is shown. T/C is the treated group as % of the vehicle group. Where survival is the endpoint, the PubChem record calls one and a half times the control and up active, and a quarter to a half above the control has no call in these data; cut-offs in other NCI protocols can differ. Schedules are NCI's codes, taken here to give the interval after Q, in days (D) or hours (H), and the number of doses after X. Some entries show no survivor count and are marked so; the dose need not have been tolerated. Some entries were tested several times; the values are given in rising order.

Tested on: BDF1 mice, s.c. Lewis lung carcinoma, T/C %
Assay: NCI In Vivo Anticancer Drug Screen. Data for tumor model Lewis Lung Carcinoma (subcutaneous) in B6D2F1 (BDF1) mice
Settings: T/C endpoint: median survival time, schedule: Q01DX009 (ip), higher T/C = longer survival
Procedure: The antitumor activity of compounds was measured in mice bearing transplantable tumors. Survival or tumor size were measured and the results are expressed as the measurement made in the treated group (T) divided by the measurement made in the vehicle treated control group (C). The tumor model used in this assay is Lewis Lung Carcinoma (subcutaneous) in B6D2F1 (BDF1) mice

CC1=C[C@H]2O[C@@H]3C[C@H]4OC(=O)/C=C\C=C\C(C(C)O)OCC[C@@H](C)[C@H](O)C(=O)OC[C@@]2(CC1)[C@]4(C)[C@]31CO1 (some centres undefined)
T/C (dose: 0.04 mg/kg/injection, vehicle: saline with Tween-80): 106 [survivor count not shown] and 123 % of control [survivor count not shown] | T/C (dose: 0.08 mg/kg/injection, vehicle: saline with Tween-80): 95 % of control [survivor count not shown] | T/C (dose: 0.15 mg/kg/injection, vehicle: saline with Tween-80): 141 % of control [survivor count not shown]

CC(=O)OCC12CCC(C)=CC1OC1C(O)C(OC(C)=O)C2(C)C12CO2 (centres undefined)
T/C (dose: 0.25 mg/kg/injection, vehicle: Klucel (hydroxypropylcellulose) (HPC)): 107 % of control [survivor count not shown] | T/C (dose: 0.5 mg/kg/injection, vehicle: Klucel (hydroxypropylcellulose) (HPC)): 102 % of control [survivor count not shown]

CC(=O)OC[C@]12C[C@H](OC(=O)CC(C)C)C(C)=C[C@H]1OC1[C@H](O)[C@@H](OC(C)=O)[C@@]2(C)[C@@]12CO2
T/C (dose: 0.12 mg/kg/injection, vehicle: saline): 106 % of control [survivor count not shown] | T/C (dose: 0.25 mg/kg/injection, vehicle: saline): 123 % of control [survivor count not shown] | T/C (dose: 0.5 mg/kg/injection, vehicle: saline): 90 % of control [survivor count not shown] | T/C (dose: 1.0 mg/kg/injection, vehicle: saline): 100 % of control [survivor count not shown]
